Values of other authors in US8399497B2, “Thiazole derivatives and use thereof” (Merck Serono SA, priority 2005, dated 2013).
Where two headings read alike, the source gives them in different places.

System: Class I PI3-kinases
Settings: cited from earlier work

Row | Structure (SMILES) | IC50 (read-out: IC50 against each of the Class I PI3-kinases) [µM] | IC50 (read-out: IC50 against each of the various Class I PI3-kinases) [µM]
1 | O=c1cc(N2CCOCC2)oc2c(-c3ccccc3)cccc12 [LY294002] | 15 to 20 | –
2 | COC[C@H]1OC(=O)c2coc3c2[C@@]1(C)C1=C(C3=O)[C@@H]2CCC(=O)[C@@]2(C)C[C@H]1OC(C)=O [wortmannin] | – | 0.001 to 0.01
